Measured values: PMC9243820
Results are given in words; binding and its absence hold for the method and conditions named. In cells and extracts the contact can be indirect. Some binding calls cover weakened binding; strength is not graded here.

Chains of the proteins cited; added tags and fusions are not shown.
UniProt P35637: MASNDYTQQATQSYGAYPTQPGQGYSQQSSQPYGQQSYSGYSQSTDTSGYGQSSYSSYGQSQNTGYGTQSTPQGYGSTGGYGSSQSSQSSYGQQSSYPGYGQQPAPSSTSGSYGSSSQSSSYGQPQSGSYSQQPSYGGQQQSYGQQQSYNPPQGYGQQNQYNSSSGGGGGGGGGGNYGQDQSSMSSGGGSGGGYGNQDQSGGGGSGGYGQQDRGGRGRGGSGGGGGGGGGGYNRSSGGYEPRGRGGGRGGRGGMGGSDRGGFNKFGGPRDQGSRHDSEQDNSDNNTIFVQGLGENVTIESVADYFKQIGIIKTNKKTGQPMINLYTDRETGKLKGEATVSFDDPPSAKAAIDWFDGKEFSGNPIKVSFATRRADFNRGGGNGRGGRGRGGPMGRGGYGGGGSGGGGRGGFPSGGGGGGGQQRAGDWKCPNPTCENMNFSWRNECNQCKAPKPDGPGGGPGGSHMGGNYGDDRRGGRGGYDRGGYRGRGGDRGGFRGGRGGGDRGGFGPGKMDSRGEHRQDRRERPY
UniProt Q09472: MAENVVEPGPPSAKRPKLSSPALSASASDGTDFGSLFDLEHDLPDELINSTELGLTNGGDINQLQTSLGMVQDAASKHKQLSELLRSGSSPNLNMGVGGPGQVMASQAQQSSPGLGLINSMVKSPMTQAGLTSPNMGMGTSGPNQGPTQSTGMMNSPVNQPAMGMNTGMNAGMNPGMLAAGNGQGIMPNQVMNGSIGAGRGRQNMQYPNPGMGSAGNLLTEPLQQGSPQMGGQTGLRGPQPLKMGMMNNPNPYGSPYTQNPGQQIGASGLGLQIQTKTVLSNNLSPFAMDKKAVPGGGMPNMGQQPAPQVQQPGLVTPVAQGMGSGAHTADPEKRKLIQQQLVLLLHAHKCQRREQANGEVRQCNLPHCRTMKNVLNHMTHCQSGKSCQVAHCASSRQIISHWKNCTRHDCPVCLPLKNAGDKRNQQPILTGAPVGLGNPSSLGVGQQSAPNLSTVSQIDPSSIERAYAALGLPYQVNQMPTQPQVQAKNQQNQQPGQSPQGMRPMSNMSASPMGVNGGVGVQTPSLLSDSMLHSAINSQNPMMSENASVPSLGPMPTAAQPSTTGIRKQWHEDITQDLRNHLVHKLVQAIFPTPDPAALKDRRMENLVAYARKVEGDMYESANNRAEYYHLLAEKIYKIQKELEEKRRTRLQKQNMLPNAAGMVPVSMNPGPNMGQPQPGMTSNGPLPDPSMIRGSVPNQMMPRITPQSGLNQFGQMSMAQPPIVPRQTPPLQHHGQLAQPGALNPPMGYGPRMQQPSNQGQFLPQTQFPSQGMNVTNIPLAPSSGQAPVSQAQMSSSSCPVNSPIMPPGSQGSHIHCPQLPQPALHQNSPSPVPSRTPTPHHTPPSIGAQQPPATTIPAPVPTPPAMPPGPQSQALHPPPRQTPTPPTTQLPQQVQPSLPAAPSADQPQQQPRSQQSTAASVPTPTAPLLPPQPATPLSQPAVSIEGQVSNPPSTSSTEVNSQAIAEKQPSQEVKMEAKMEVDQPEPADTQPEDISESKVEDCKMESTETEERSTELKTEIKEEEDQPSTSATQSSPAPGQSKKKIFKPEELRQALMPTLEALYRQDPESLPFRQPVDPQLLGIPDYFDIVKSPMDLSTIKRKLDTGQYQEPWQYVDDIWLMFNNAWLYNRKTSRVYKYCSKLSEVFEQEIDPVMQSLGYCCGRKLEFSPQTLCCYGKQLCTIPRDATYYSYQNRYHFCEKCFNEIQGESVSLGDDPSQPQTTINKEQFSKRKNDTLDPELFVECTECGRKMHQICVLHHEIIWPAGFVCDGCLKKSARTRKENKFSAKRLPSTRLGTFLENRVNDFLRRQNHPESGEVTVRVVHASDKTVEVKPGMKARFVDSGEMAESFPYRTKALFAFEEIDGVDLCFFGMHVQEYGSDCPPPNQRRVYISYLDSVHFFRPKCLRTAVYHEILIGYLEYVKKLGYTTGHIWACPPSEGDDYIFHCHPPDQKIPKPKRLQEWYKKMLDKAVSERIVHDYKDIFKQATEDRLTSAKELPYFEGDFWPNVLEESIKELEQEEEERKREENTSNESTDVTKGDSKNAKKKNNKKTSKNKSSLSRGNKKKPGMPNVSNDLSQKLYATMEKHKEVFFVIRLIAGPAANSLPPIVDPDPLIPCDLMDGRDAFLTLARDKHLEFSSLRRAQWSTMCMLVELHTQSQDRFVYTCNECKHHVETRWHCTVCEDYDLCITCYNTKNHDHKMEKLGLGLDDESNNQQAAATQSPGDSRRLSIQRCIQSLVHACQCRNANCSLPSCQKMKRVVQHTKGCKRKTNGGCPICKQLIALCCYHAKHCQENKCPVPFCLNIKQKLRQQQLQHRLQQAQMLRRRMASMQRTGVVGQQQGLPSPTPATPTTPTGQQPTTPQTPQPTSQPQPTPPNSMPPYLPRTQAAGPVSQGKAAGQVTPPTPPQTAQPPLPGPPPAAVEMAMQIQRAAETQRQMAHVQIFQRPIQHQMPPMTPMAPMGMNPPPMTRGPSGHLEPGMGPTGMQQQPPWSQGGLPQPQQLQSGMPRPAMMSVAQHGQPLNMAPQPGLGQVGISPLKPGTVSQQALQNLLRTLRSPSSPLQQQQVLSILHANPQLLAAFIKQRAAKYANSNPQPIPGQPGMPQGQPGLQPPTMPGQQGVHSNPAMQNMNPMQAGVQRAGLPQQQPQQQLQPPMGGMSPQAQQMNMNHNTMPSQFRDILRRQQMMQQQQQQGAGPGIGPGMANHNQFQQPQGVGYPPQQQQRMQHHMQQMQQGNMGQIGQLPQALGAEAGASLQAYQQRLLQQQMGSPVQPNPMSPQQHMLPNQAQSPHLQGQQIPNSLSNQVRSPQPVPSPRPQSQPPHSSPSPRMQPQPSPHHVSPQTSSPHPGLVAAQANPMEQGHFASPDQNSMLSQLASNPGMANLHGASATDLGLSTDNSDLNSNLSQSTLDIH

Target: fused in sarcoma (FUS) (human (endogenous in ESCC cells)) (UniProt P35637)
Assay: co-IP; co-IP with both anti-FUS and anti-p300 antibodies in ESCC cells, endogenous proteins

## p300 (from UniProt Q09472 1-2414)
  binding: binds
